Measurements taken from the supplement of paper PMC10849652.
This is one part of the list.

Protein sequences, listed by entry. Tags and fused reporters are not part of them. Lines headed by an entry give the natural chain unless they say otherwise; changes in a name come on top.
UniProt Q9NR33: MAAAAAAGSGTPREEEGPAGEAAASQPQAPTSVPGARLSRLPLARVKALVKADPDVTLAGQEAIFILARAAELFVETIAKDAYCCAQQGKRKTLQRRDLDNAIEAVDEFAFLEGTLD
UniProt Q9NZ53: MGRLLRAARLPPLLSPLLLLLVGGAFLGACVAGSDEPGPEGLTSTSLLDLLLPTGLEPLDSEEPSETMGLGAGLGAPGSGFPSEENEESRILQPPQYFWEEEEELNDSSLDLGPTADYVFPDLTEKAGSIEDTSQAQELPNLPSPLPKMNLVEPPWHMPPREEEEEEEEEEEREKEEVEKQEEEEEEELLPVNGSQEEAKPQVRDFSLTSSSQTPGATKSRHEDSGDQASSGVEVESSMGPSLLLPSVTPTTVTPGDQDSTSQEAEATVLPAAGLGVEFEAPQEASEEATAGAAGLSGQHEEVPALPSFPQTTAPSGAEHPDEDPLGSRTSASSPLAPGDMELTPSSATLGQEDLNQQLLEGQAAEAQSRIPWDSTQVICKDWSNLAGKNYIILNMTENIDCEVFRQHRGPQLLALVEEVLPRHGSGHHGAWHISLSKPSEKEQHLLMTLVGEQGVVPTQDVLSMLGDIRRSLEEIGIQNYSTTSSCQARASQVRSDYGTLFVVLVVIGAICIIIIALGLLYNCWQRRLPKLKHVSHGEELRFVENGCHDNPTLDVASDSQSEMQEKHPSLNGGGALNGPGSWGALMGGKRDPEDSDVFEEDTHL
UniProt Q02809: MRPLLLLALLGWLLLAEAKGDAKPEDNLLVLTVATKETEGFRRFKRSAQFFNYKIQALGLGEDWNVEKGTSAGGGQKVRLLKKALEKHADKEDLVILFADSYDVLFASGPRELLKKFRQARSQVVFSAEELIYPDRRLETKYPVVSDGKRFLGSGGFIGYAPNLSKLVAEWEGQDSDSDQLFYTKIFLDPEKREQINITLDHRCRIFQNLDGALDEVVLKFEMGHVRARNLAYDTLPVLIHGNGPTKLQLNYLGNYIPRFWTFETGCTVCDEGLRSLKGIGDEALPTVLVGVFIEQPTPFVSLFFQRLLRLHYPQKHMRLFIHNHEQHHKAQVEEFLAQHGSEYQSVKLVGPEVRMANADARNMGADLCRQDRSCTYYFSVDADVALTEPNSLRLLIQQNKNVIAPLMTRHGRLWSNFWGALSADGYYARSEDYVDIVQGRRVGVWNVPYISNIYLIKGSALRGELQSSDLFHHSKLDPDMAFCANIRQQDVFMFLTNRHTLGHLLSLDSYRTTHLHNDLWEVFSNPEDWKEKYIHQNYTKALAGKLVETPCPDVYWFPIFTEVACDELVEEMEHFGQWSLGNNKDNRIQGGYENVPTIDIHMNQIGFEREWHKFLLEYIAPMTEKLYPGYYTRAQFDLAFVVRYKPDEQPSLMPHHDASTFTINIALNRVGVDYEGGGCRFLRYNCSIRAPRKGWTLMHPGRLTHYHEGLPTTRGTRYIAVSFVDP
UniProt O15160, whole entry, looked up: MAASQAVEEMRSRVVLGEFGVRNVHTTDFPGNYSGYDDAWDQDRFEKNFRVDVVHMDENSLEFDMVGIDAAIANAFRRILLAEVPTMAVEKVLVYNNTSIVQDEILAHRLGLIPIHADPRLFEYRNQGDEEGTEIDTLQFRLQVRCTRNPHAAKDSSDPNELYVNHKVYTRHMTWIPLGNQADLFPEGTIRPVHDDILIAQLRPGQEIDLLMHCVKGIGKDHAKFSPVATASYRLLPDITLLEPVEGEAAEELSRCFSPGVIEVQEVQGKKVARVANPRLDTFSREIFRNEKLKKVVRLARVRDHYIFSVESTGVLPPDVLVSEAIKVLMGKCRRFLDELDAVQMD
UniProt Q9H5K3: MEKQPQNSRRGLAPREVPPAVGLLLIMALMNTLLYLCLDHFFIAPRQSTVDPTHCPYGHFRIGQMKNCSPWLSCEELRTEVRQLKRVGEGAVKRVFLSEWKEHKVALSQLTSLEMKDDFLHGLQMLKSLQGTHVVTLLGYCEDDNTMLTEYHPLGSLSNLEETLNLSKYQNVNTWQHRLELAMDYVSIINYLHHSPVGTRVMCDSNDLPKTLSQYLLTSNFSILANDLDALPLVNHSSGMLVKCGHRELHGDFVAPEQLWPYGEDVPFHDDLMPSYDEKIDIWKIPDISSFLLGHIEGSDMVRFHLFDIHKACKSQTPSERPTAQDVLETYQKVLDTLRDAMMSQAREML
UniProt Q6UW63: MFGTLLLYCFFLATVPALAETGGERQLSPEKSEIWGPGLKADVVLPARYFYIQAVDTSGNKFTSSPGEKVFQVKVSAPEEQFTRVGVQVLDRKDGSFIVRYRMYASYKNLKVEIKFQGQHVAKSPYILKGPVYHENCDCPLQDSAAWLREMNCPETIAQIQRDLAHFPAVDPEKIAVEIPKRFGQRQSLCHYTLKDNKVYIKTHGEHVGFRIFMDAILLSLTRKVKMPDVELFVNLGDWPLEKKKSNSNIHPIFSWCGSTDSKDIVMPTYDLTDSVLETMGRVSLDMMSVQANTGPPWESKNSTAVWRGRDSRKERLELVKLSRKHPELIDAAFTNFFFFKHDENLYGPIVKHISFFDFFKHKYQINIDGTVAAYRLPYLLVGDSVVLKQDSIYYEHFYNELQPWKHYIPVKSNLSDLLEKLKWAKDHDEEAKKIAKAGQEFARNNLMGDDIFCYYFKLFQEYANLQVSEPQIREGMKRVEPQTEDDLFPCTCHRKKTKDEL
UniProt P53350, whole entry, looked up: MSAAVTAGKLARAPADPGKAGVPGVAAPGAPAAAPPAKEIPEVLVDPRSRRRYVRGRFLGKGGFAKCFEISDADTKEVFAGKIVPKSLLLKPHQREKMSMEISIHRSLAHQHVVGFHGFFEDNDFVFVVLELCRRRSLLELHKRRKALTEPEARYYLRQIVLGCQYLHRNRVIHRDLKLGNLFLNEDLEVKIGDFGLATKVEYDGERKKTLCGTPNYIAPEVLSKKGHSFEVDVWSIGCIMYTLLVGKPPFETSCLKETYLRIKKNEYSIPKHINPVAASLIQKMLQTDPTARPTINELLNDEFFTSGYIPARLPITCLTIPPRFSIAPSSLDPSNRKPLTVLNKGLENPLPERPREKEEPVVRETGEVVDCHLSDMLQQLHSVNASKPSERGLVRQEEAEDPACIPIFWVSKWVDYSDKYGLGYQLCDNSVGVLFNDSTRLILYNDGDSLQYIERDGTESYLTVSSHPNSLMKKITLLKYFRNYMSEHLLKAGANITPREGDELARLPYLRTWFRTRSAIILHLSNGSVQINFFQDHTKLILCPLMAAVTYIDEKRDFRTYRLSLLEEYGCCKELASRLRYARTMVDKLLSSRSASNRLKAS
UniProt Q9NVU0: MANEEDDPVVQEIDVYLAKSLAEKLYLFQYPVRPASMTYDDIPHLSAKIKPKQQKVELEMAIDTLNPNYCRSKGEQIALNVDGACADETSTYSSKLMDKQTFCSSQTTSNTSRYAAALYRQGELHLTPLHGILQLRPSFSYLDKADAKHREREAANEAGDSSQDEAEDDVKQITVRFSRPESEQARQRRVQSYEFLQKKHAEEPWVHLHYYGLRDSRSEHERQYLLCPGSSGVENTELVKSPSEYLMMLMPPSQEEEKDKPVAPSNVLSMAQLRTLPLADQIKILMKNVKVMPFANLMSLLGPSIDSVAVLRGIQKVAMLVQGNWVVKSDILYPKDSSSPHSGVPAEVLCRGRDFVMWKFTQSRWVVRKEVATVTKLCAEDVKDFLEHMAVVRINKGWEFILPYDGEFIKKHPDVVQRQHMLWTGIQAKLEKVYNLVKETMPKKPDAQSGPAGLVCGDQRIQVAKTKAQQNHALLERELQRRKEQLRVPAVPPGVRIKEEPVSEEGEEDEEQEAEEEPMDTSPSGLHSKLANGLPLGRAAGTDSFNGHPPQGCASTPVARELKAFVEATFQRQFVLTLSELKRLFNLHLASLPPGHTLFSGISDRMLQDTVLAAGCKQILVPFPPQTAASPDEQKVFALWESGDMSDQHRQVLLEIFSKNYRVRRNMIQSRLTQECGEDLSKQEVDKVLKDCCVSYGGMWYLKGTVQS
UniProt P00491: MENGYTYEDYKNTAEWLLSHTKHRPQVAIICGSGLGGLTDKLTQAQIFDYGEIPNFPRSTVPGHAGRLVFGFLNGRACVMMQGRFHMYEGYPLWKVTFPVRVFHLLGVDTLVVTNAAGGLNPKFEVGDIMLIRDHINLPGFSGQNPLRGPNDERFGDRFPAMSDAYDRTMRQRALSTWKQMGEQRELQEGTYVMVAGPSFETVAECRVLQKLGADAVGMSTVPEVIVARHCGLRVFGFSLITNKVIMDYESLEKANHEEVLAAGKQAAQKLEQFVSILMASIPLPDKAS
UniProt Q9BUI4: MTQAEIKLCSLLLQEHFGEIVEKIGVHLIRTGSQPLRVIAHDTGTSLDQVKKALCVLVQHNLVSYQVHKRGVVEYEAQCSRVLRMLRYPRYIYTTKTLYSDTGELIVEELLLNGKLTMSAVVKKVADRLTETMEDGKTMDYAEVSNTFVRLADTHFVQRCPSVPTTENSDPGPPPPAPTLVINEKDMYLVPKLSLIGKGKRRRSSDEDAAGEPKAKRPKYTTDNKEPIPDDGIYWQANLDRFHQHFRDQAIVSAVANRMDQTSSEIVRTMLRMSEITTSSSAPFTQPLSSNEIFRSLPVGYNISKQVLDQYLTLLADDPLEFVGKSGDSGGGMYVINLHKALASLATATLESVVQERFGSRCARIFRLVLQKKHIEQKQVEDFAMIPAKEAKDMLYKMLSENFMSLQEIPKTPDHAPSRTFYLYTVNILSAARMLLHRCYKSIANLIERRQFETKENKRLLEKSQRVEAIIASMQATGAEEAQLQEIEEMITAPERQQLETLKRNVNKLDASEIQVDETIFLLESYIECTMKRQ
UniProt Q9Y2Y1: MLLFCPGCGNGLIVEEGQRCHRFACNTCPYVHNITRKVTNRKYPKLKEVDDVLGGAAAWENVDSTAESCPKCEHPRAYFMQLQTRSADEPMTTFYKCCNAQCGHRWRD
UniProt Q9NW61: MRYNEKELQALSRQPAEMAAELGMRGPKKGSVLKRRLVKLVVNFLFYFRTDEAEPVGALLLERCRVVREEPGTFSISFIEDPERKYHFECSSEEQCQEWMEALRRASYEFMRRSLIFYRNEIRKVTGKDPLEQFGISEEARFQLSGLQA
UniProt Q15181: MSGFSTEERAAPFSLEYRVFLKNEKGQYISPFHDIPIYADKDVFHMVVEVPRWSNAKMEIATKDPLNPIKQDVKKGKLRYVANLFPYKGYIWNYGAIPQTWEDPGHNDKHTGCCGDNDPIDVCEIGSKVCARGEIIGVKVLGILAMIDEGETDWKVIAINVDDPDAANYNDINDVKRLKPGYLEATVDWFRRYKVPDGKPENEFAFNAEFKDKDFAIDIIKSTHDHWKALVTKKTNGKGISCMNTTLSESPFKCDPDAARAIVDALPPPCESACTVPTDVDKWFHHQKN
UniProt P49005: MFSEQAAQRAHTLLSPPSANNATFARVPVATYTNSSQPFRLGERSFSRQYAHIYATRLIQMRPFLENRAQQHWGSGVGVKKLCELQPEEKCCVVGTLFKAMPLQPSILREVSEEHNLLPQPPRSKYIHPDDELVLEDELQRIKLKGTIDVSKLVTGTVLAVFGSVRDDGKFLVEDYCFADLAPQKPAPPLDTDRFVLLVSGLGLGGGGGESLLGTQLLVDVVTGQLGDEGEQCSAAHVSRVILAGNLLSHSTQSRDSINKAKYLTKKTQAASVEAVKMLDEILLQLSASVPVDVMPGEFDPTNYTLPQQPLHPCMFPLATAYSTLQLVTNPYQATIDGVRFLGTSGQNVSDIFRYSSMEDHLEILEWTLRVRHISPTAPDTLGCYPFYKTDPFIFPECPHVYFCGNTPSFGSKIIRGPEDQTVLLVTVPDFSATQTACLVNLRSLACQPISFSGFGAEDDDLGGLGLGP
UniProt Q8TCS8: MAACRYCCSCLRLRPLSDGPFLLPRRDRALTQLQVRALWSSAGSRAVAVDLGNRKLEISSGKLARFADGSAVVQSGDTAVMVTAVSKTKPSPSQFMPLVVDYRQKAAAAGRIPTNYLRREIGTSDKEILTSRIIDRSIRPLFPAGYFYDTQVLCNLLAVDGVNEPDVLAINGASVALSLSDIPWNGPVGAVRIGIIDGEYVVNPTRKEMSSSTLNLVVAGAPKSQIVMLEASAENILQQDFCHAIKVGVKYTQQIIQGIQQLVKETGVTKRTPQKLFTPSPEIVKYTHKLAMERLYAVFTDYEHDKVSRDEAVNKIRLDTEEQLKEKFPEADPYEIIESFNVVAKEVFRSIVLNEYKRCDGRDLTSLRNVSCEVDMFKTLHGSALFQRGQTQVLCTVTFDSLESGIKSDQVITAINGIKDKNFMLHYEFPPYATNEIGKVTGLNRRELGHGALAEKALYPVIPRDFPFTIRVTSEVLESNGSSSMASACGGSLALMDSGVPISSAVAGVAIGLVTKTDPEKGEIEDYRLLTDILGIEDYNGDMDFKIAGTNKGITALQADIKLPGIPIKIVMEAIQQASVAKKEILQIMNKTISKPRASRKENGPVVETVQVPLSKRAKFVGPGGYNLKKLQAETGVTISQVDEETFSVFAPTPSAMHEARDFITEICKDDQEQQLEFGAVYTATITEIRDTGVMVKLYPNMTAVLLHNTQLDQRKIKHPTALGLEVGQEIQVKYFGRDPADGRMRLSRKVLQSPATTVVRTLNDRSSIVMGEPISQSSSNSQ

Legend:
Test in all cases: log2 fold change, soluble protein after heating vs DMSO (PISA); higher = thermal stabilisation; K562 lysate, 10 uM; active = over 0.2 and 3.5 SD of the protein, either way, in both replicates (recomputed)
alvocidib = compound: CN1CC[C@H](c2c(O)cc(O)c3c(=O)cc(-c4ccccc4Cl)oc23)[C@H](O)C1 [alvocidib]
Outline: (§1)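 Quantification was by TMTpro 16plex LC-MS/MS with equalised channel sums, applied to the supernatant after 21,000xg for 90 min. Samples were crude K562 extract at 1 mg/mL protein in PBS pH 7.4 with 1 mM MgCl2, treated with 10 μM compound for 30 min, heated for 3 min across 48°C-58°C, pooled and brought to 0.5% NP-40 at 4°C. Values are log-two fold changes in thermal stability relative to solvent controls, from duplicates.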

Tubastatin A = compound: CN1CCc2c(c3ccccc3n2Cc2ccc(C(=O)NO)cc2)C1 [Tubastatin A]
Outline: as §1

[1] = compound: CNC(=O)C1=CC=CC=C1NC2=NC(=NC=C2Cl)NC3=C(C=C(C=C3)N4CCOCC4)OC
Outline: as §1

defactinib = compound: CNC(=O)c1ccc(Nc2ncc(C(F)(F)F)c(NCc3nccnc3N(C)S(C)(=O)=O)n2)cc1 [defactinib]
Outline: as §1

[2] = compound: CNc1nc(-c2ccc3c(N)n[nH]c3c2)cc(N2C[C@@H](C(=O)NC3CCCCC3)CC[C@H]2C)n1
Outline: as §1

encorafenib = compound: COC(=O)N[C@@H](C)CNc1nccc(-c2cn(C(C)C)nc2-c2cc(Cl)cc(NS(C)(=O)=O)c2F)n1 [encorafenib]
Outline: as §1

[3] = compound: COC(=O)[C@H](CCSC)NC(=O)C1=C(C=C(C=C1)NC[C@H](CS)N)C2=CC=CC=C2
Outline: as §1

alisertib = compound: COc1cc(Nc2ncc3c(n2)-c2ccc(Cl)cc2C(c2c(F)cccc2OC)=NC3)ccc1C(=O)O [alisertib]
Outline: as §1

[4] = compound: COc1cc2nc(-c3cc(F)ccc3O)nc(N[C@@H]3CNC[C@H]3C(C)(C)O)c2cc1OC
Outline: as §1

gefitinib = compound: COc1cc2ncnc(Nc3ccc(F)c(Cl)c3)c2cc1OCCCN1CCOCC1 [gefitinib]
Outline: as §1

Row | Target | log2 fold change (alvocidib) | log2 fold change (Tubastatin A) | log2 fold change [1] | log2 fold change (defactinib) | log2 fold change [2] | log2 fold change (encorafenib) | log2 fold change [3] | log2 fold change (alisertib) | log2 fold change [4] | log2 fold change (gefitinib)
1 | POTEF (UniProt A5A3E0) | inactive: -0.002 | inactive: -0.018 | inactive: 0.066 | inactive: 0.041 | inactive: -0.001 | inactive: 0.005 | inactive: 0.028 | inactive: -0.076 | inactive: 0.014 | inactive: -0.026
2 | POLR3D (UniProt P05423) | inactive: -0.058 | inactive: -0.029 | inactive: -0.007 | inactive: 0.032 | inactive: 0.139 | inactive: 0.015 | inactive: 0.032 | inactive: -0.01 | inactive: 0.028 | inactive: 0.008
3 | POLE4 (UniProt Q9NR33) | inactive: 0.033 | inactive: 0.009 | inactive: 0.094 | inactive: 0.05 | inactive: 0.06 | inactive: 0.065 | inactive: -0.033 | inactive: 0 | inactive: -0.032 | inactive: -0.128
4 | PODXL2 (UniProt Q9NZ53) | inactive: -0.046 | inactive: 0.021 | inactive: 0.06 | inactive: 0.166 | inactive: 0.019 | inactive: 0.022 | inactive: -0.018 | inactive: 0.108 | inactive: -0.154 | inactive: -0.112
5 | POLR2B (UniProt P30876) | inactive: -0.008 | inactive: -0.092 | inactive: 0.057 | inactive: 0.004 | inactive: -0.026 | inactive: 0.022 | inactive: 0.121 | inactive: 0.002 | inactive: -0.018 | inactive: 0.012
6 | PLEKHO2 (UniProt Q8TD55) | inactive: -0.067 | inactive: -0.228 | inactive: 0.281 | inactive: -0.001 | inactive: -0.106 | inactive: 0.007 | inactive: 0.054 | inactive: -0.004 | inactive: 0 | inactive: 0.043
7 | PLOD1 (UniProt Q02809) | inactive: -0.008 | inactive: 0.003 | inactive: 0.013 | inactive: 0.005 | inactive: -0.055 | inactive: 0.037 | inactive: -0.021 | inactive: 0.007 | inactive: 0.025 | inactive: 0.009
8 | POLG (UniProt P54098) | inactive: 0.033 | inactive: 0.074 | inactive: 0 | inactive: -0.021 | inactive: 0.034 | inactive: -0.081 | inactive: 0.082 | inactive: -0.025 | inactive: -0.007 | inactive: 0.096
9 | POLR2A, A0A590UJN4 | inactive: -0.012 | inactive: 0.007 | inactive: 0.017 | inactive: -0.019 | inactive: -0.042 | inactive: 0.002 | inactive: 0.073 | inactive: -0.013 | inactive: 0.016 | inactive: -0.003
10 | POLR1C (UniProt O15160) | inactive: 0 | inactive: -0.083 | inactive: -0.082 | inactive: -0.007 | inactive: -0.017 | inactive: 0.013 | inactive: 0.07 | inactive: -0.015 | inactive: 0.014 | inactive: 0.005
11 | POMK (UniProt Q9H5K3) | inactive: 0.013 | inactive: -0.032 | inactive: 0.014 | inactive: 0.082 | inactive: 0.012 | inactive: 0.029 | inactive: -0.095 |  |  | 
12 | PLXNA1 (UniProt Q9UIW2) | inactive: -0.009 | inactive: 0.024 | inactive: -0.031 | inactive: -0.005 | inactive: -0.009 | inactive: -0.002 | inactive: -0.024 | inactive: -0.022 | inactive: 0.005 | inactive: 0.01
13 | PLIN2 (UniProt Q99541) | inactive: -0.008 | inactive: -0.107 | inactive: -0.014 | inactive: 0.049 | inactive: 0.002 | inactive: 0.061 | inactive: -0.107 | inactive: 0.044 | inactive: -0.071 | inactive: 0.104
14 | POGLUT2 (UniProt Q6UW63) | inactive: -0.026 | inactive: 0.006 | inactive: 0.031 | inactive: -0.018 | inactive: 0.006 | inactive: 0.04 | inactive: 0.016 | inactive: -0.006 | inactive: 0.022 | inactive: 0.06
15 | PLK1 (UniProt P53350) | inactive: 0.059 | inactive: -0.108 | active: -0.347 | inactive: -0.268 | inactive: 0.006 | inactive: 0.097 | inactive: -0.034 | inactive: -0.003 | inactive: -0.023 | inactive: 0.003
16 | PPCDC (UniProt Q96CD2) | inactive: -0.08 | inactive: 0.034 | inactive: -0.053 | inactive: -0.037 | inactive: -0.054 | inactive: -0.082 | inactive: -0.027 | inactive: -0.051 | inactive: 0.032 | inactive: 0.028

Row | Target | log2 fold change (alvocidib) | log2 fold change (Tubastatin A) | log2 fold change [1] | log2 fold change (defactinib) | log2 fold change [2] | log2 fold change (encorafenib) | log2 fold change [3] | log2 fold change (alisertib) | log2 fold change [4] | log2 fold change (gefitinib)
17 | PODXL (UniProt O00592) | inactive: -0.052 |  |  |  |  |  |  |  |  | 
18 | POLR3E (UniProt Q9NVU0) | inactive: 0.011 | inactive: -0.08 | inactive: 0.009 | inactive: 0.02 | inactive: 0.009 | inactive: 0.004 | inactive: 0.104 | inactive: 0.024 | inactive: -0.003 | inactive: 0.009
19 | PNP (UniProt P00491) | inactive: -0.005 | inactive: 0.012 | inactive: -0.016 | inactive: 0.002 | inactive: -0.024 | inactive: -0.018 | inactive: -0.056 | inactive: -0.015 | inactive: -0.012 | inactive: 0.019
20 | POLR1B isoform 3 (UniProt Q9H9Y6) | inactive: -0.035 | inactive: -0.076 | inactive: -0.025 | inactive: 0.02 | inactive: -0.011 | inactive: -0.008 | inactive: 0.185 | inactive: -0.038 | inactive: 0.005 | inactive: 0.018
21 | POLR3C (UniProt Q9BUI4) | inactive: 0.014 | inactive: 0.017 | inactive: 0.015 | inactive: 0.015 | inactive: 0.011 | inactive: 0.012 | inactive: 0.034 | inactive: 0.025 | inactive: 0.007 | inactive: 0.016
22 | PNPO (UniProt Q9NVS9) | inactive: 0.086 | inactive: -0.044 | inactive: 0.057 | inactive: 0.065 | inactive: -0.078 | inactive: 0.065 | inactive: -0.189 | inactive: -0.06 | inactive: 0.009 | inactive: -0.027
23 | POLR1A (UniProt O95602) | inactive: -0.009 | inactive: -0.026 | inactive: 0.013 | inactive: -0.025 | inactive: 0.147 | inactive: -0.012 | inactive: 0.157 | inactive: -0.021 | inactive: 0.039 | inactive: -0.027
24 | POLR3K (UniProt Q9Y2Y1) | inactive: 0.04 | inactive: -0.015 | inactive: 0.007 | inactive: -0.018 | inactive: 0.187 | inactive: 0 | inactive: -0.146 | inactive: 0.003 | inactive: 0.093 | inactive: -0.036
25 | PNPLA6 (UniProt Q8IY17) | inactive: -0.134 | inactive: 0.017 | inactive: 0.125 | inactive: -0.051 | inactive: 0.128 | inactive: 0.023 | inactive: -0.311 | inactive: -0.06 | inactive: -0.04 | inactive: -0.223
26 | PLEKHJ1 (UniProt Q9NW61) | inactive: 0.105 | inactive: 0.102 | inactive: -0.076 |  |  |  |  |  |  | 
27 | PPA1 (UniProt Q15181) | inactive: 0.05 | inactive: 0.048 | inactive: -0.025 | inactive: 0.004 | inactive: 0.018 | inactive: -0.025 | inactive: -0.005 | inactive: 0.009 | inactive: 0.01 | inactive: -0.053
28 | POLD2 (UniProt P49005) | inactive: 0.003 | inactive: 0.013 | inactive: 0.034 | inactive: 0.034 | inactive: -0.003 | inactive: -0.063 | inactive: -0.006 | inactive: -0.009 | inactive: -0.015 | inactive: -0.005
29 | PNKD isoform 2 (UniProt Q8N490) | inactive: 0.02 | inactive: -0.021 | inactive: 0.031 | inactive: 0.002 | inactive: -0.022 | inactive: 0 | inactive: 0.044 | inactive: -0.053 | inactive: 0.039 | inactive: 0.057
30 | PNPT1 (UniProt Q8TCS8) | inactive: -0.008 | inactive: 0.047 | inactive: -0.025 | inactive: -0.011 | inactive: 0.004 | inactive: 0 | inactive: 0.025 | inactive: 0.005 | inactive: -0.003 | inactive: 0.005
31 | PLPBP (UniProt O94903) | inactive: -0.049 | inactive: -0.015 | inactive: 0.077 | inactive: 0.041 | inactive: 0.01 | inactive: 0.005 | inactive: -0.007 | inactive: 0.011 | inactive: -0.041 | inactive: -0.008

Nine entries from above, as a markdown table:

| Row | Target | log2 fold change (alvocidib) | log2 fold change (Tubastatin A) | log2 fold change [1] | log2 fold change (defactinib) | log2 fold change [2] | log2 fold change (encorafenib) | log2 fold change [3] | log2 fold change (alisertib) | log2 fold change [4] | log2 fold change (gefitinib) |
| --- | --- | --- | --- | --- | --- | --- | --- | --- | --- | --- | --- |
| 23 | POLR1A (UniProt O95602) | inactive: -0.009 | inactive: -0.026 | inactive: 0.013 | inactive: -0.025 | inactive: 0.147 | inactive: -0.012 | inactive: 0.157 | inactive: -0.021 | inactive: 0.039 | inactive: -0.027 |
| 24 | POLR3K (UniProt Q9Y2Y1) | inactive: 0.04 | inactive: -0.015 | inactive: 0.007 | inactive: -0.018 | inactive: 0.187 | inactive: 0 | inactive: -0.146 | inactive: 0.003 | inactive: 0.093 | inactive: -0.036 |
| 25 | PNPLA6 (UniProt Q8IY17) | inactive: -0.134 | inactive: 0.017 | inactive: 0.125 | inactive: -0.051 | inactive: 0.128 | inactive: 0.023 | inactive: -0.311 | inactive: -0.06 | inactive: -0.04 | inactive: -0.223 |
| 26 | PLEKHJ1 (UniProt Q9NW61) | inactive: 0.105 | inactive: 0.102 | inactive: -0.076 |  |  |  |  |  |  |  |
| 27 | PPA1 (UniProt Q15181) | inactive: 0.05 | inactive: 0.048 | inactive: -0.025 | inactive: 0.004 | inactive: 0.018 | inactive: -0.025 | inactive: -0.005 | inactive: 0.009 | inactive: 0.01 | inactive: -0.053 |
| 28 | POLD2 (UniProt P49005) | inactive: 0.003 | inactive: 0.013 | inactive: 0.034 | inactive: 0.034 | inactive: -0.003 | inactive: -0.063 | inactive: -0.006 | inactive: -0.009 | inactive: -0.015 | inactive: -0.005 |
| 29 | PNKD isoform 2 (UniProt Q8N490) | inactive: 0.02 | inactive: -0.021 | inactive: 0.031 | inactive: 0.002 | inactive: -0.022 | inactive: 0 | inactive: 0.044 | inactive: -0.053 | inactive: 0.039 | inactive: 0.057 |
| 30 | PNPT1 (UniProt Q8TCS8) | inactive: -0.008 | inactive: 0.047 | inactive: -0.025 | inactive: -0.011 | inactive: 0.004 | inactive: 0 | inactive: 0.025 | inactive: 0.005 | inactive: -0.003 | inactive: 0.005 |
| 31 | PLPBP (UniProt O94903) | inactive: -0.049 | inactive: -0.015 | inactive: 0.077 | inactive: 0.041 | inactive: 0.01 | inactive: 0.005 | inactive: -0.007 | inactive: 0.011 | inactive: -0.041 | inactive: -0.008 |
